# Laboratory results published in PubChem BioAssay AID1347076 (National Center for Advancing Translational Sciences (NCATS), 2019).
# The campaign covered roughly 400,000 compounds. About 13,000 (3.2%) were called active. The shares of active, inactive and inconclusive entries below differ from those in the screen. Calls follow the shape of the dose curve; as a rule, active = well fitted cell-killing curve with a large enough effect; inconclusive = small, poorly fitted or top-dose-only effect, or effect the other way; inactive = flat fitted curve, though single readings scatter. Where the call is inconclusive, the potency comes from a doubtful curve fit.
# Experiment: qHTS assay for MDR1-selective chemotherapeutics: Primary screen using the drug-selected MDR subline cells KB-V1; also: nearly all actives have a fitted effect of over 60% in size
# Details: KB-V1 MDR cells viability, CellTiter-Glo, 72 h; activity change, negative = cytotoxicity: at 46.1 µM (top of the series)
# Summary of the method: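 Cytotoxicity toward P-gp-expressing KB-V1 cells was determined as loss of CellTiter-Glo luminescence after 72 h at 37 degrees C. Compounds were tested in quantitative HTS format across a concentration range, with curves fitted to normalized data.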
# % is scaled to controls: 0 for no effect and ±100 for the full control effect; potency is read from the fitted curve at half-maximal effect.
Structure (SMILES),Potency,"activity change, negative = cytotoxicity"
O=S(=O)(NCC1CN(S(=O)(=O)c2c(F)cccc2F)C1)c1ccc2c(c1)OCCO2,inactive,–
O=C(Nc1ccc(C(F)(F)F)cc1)c1cc(-c2cccnc2)nc2ccc(Br)cc12,"inconclusive: 9.2 µM [cytotoxic, partial curve]",–
CCc1cccc(N2C(=O)CSC23C(=O)Nc2ccccc23)c1 (stereo unspecified),"inconclusive: 16.4 µM [cytotoxic, partial curve, poor fit]",–
COc1ccc(S(=O)(=O)Nc2c(C)nc3nc(C)[nH]n3c2=O)cc1,inactive,–
O=C(c1cnccn1)N(c1ccccc1)C1(C(=O)NC2CCCCC2)CCCCC1,"inconclusive: 0.517 µM [cytotoxic, partial curve, poor fit]",–
CC(C)n1nnnc1SCC(=O)N(C)C1CCS(=O)(=O)C1 (stereo unspecified),–,inconclusive: 38%
Cc1ccccc1OCc1nc2ccc(S(=O)(=O)N3CCOCC3)cc2[nH]1,active: 20.6 µM,–
CCOC(=O)C1=C(c2ccccc2)NC(N)=NC1c1ccc(OCc2ccc(Cl)cc2)c(OC)c1 (stereo unspecified),inactive,–
Cc1ccc2nc(SCc3nc4c(cnn4-c4ccccc4)c(=O)[nH]3)[nH]c2c1,active: 2.31 µM,–
O=[N+]([O-])c1ccc(OC/C=C2\Oc3ccc([N+](=O)[O-])cc3C2N2CCOCC2)cc1 (stereo unspecified),"inconclusive: 29.1 µM [cytotoxic, single point]",–
CC(=O)Oc1cc2cccc(OC(C)=O)c(=O)c2c(OC(C)=O)c1OC(C)=O,"inconclusive: 16.4 µM [cytotoxic, single point]",–
COc1ccccc1N1CCN(CC(=O)Nc2ccc(CN3CCCCC3)cc2)CC1,inactive,–
Cc1ccnc(NC(=O)CCC(=O)N(CC(=O)NC(C)(C)C)Cc2ccc3c(c2)OCO3)c1,"inconclusive: 20.6 µM [cytotoxic, partial curve, poor fit]",–
CCOC(=O)Cc1nnc(NC(=O)c2ncn[nH]2)s1,inactive,–
Cc1ccc(S(=O)(=O)N2CCN(C(=O)C(O)c3ccccc3)CC2)cc1 (stereo unspecified),"inconclusive: 16.4 µM [cytotoxic, single point]",–
O=C1C2C3C=CC(C3)C2C(=O)N1Cc1cccnc1 (stereo unspecified),"inconclusive: 20.6 µM [rising, single point]",–
O=C(NC1CCCC1)c1sc(=S)n2c1[nH]c(=O)c1ccccc12,–,inconclusive: -86.4%
Cn1cnc(S(=O)(=O)N2CCCC(c3cc(C(=O)Nc4ccc(F)c(Cl)c4)no3)C2)c1 (stereo unspecified),inactive,–
COCCSc1ccccc1C(=O)Nc1ccncc1,"inconclusive: 16.4 µM [cytotoxic, single point]",–
O=c1oc(-c2ccc(Br)o2)nc2ccccc12,inactive,–
COc1ccc(NC(=O)c2ccc(-n3c(C)ccc3C)cc2)c(OC)c1,"inconclusive: 16.4 µM [cytotoxic, partial curve]",–
CCn1nnc2cc(C(=O)NCCc3ccccc3F)ccc21,"inconclusive: 16.4 µM [cytotoxic, partial curve]",–
CCCc1cc(C(=O)N/N=C/c2ccc(CC)s2)c2ccccc2n1,active: 5.8 µM,–

Structure (SMILES),Potency,"activity change, negative = cytotoxicity"
COc1ccc(NC(=O)C2CCCN(S(=O)(=O)c3ccc(Br)s3)C2)cc1 (stereo unspecified),inactive,–
CCCc1nc(NCCO)c(C#N)c2c1CCCC2,"inconclusive: 25.9 µM [cytotoxic, single point]",–
COc1ccc(C2SCC(=O)N2CCc2ccc(OC)c(OC)c2)cc1 (stereo unspecified),"inconclusive: 3.66 µM [cytotoxic, full curve]",–
O=C(c1ccc2oc(Cc3ccc(Cl)cc3)nc2c1)N1CCCCC1CCO (stereo unspecified),"inconclusive: 11.6 µM [cytotoxic, partial curve]",–
CC1OC(CC(=O)O)CC2=C1C(=O)c1c(O)cccc1C2=O (stereo unspecified),active: 2.91 µM,–
Cc1nn(C)cc1CN1CCC(CO)(CCOc2ccccc2)CC1,inactive,–
CCN(Cc1cc2cccc(C)c2[nH]c1=O)C(=O)c1ccccc1OC,"inconclusive: 14.6 µM [cytotoxic, partial curve]",–
Cc1ccc2nc(-c3cccc(-c4nc5ccc(C)cc5o4)n3)oc2c1,inactive,–
CCOc1ccc(C(=O)Nc2cccc3ncccc23)cc1Cl,"inconclusive: 29.1 µM [cytotoxic, single point]",–
COc1cccc(C(=O)Nc2cc(C)nn2-c2ccccc2)c1OC,"inconclusive: 7.31 µM [cytotoxic, partial curve]",–
COc1cccc(OC)c1C(=O)NC(=S)Nc1ccc2c(c1)Cc1ccccc1-2,"inconclusive: 8.2 µM [cytotoxic, partial curve]",–
Brc1cccc(Cn2c(-c3cncs3)nc3ccccc32)c1,"inconclusive: 23.1 µM [cytotoxic, single point]",–
N#Cc1cc2sc3nnc(-c4ccncc4)n3c2cc1C#N,active: 2.06 µM,–
CCOc1ccc(NC(=O)c2cccc3ccccc23)cc1,active: 5.8 µM,–
CCOC(=O)c1c(C)[nH]c(C)c1C(=O)COC(=O)c1cc(OC)c(OC)cc1OC,"inconclusive: 23.1 µM [rising, single point]",–
CCCN1C(=S)c2ccccc2C1c1ccccc1 (stereo unspecified),–,inconclusive: -17.4%
CC1=CN2C(=N)/C(=C\c3cn(CCCOc4ccccc4)c4ccccc34)C(=O)N=C2S1,"inconclusive: 8.2 µM [cytotoxic, partial curve]",–
COc1cccc(-n2cnc3sc4c(c3c2=O)CCC4)c1,"inconclusive: 25.9 µM [cytotoxic, single point]",–
Cc1ccc(C2=NOC3(CC(=O)N(c4ccc(C)cc4)C3=O)C2)cc1 (stereo unspecified),"inconclusive: 2.59 µM [rising, partial curve, poor fit]",–
CC1CCCN(S(=O)(=O)c2ccc(NC(=O)CN3C(=O)NC(C)(c4ccccc4)C3=O)cc2)C1 (stereo unspecified),inactive,–
CCOC(=O)Cc1nnc2c(Nc3ccc(Cl)cc3)nc3nonc3n12,"inconclusive: 29.1 µM [cytotoxic, single point]",–
Cc1ccc(CNC(=O)CN2C(=O)c3ccccc3S2(=O)=O)cc1,"inconclusive: 14.6 µM [rising, single point]",–

# Record cards (already shown).
# `CC1CCCN(S(=O)(=O)c2ccc(NC(=O)CN3C(=O)NC(C)(c4ccccc4)C3=O)cc2)C1` (stereo unspecified) in the list: Potency: inactive
# `Cc1ccc2nc(-c3cccc(-c4nc5ccc(C)cc5o4)n3)oc2c1` in the list: Potency: inactive
# `N#Cc1cc2sc3nnc(-c4ccncc4)n3c2cc1C#N` in the list: Potency: active: 2.06 µM
# `COCCSc1ccccc1C(=O)Nc1ccncc1` in the list: Potency: inconclusive: 16.4 µM [cytotoxic, single point]
